The list shows only some results of the screen, not a fair sample: it is rich in T/C values a quarter to a half above the control, in often repeated tests (any T/C) and in doses without a T/C. Further doses and runs are listed elsewhere. T/C gives the treated animals as a percentage of the vehicle group. Some entries give survivors of the animals treated and no T/C: the source holds a T/C of zero for them, seemingly a mark for toxic or unscored doses. Some doses without a T/C left all or most animals alive at the check, yet need not have been tolerated: survival well below the control is almost never listed, so the zero probably covers shortened survival too. Counts of survivors are from the toxicity check (mostly the fifth day) where no day follows; animals may have died later. Schedules are NCI's codes, taken here to give the interval after Q, in days (D) or hours (H), and the number of doses after X. Some entries hold several experiments; the values are given in rising order. For survival time, the PubChem record calls one and a half times the control and up active, and a quarter to a half above the control has no call in these data; cut-offs in other NCI protocols can differ. Some T/C values carry the count of animals alive at the toxicity check (mostly the fifth day); where none is given, no animal had died by that day.
Test system: P388 leukemia ip, CD2F1 mice, survival T/C
Assay: NCI In Vivo Anticancer Drug Screen. Data for tumor model P388 Leukemia (intraperitoneal) in CD2F1 (CDF1) mice
Settings: T/C endpoint: median survival time, higher T/C = longer survival
[1] = dose: 15.0 mg/kg/injection, schedule: Q01DX005 (ip), vehicle: saline with Tween-80
[2] = dose: 60.0 mg/kg/injection, schedule: Q01DX005 (ip), vehicle: saline with Tween-80
[3] = dose: 120.0 mg/kg/injection, schedule: Q01DX005 (ip), vehicle: saline with Tween-80
[4] = dose: 240.0 mg/kg/injection, schedule: Q01DX005 (ip), vehicle: saline with Tween-80

With CC(=O)CC(=O)c1ccc(C)cc1.CC(=O)CC(=O)c1ccc(C)cc1.[Ni] the survivor count (dose: 12.5 mg/kg/injection, schedule: Q01DX005 (ip), vehicle: saline with Tween-80) was 4 of 5, the survivor count (dose: 25.0 mg/kg/injection, schedule: Q01DX005 (ip), vehicle: saline with Tween-80) was 5 of 5 and the survivor count (dose: 100.0 mg/kg/injection, schedule: Q04DX003 (ip), vehicle: saline with Tween-80) was 3 of 6 and 3 of 5. For the same compound, the survivor count (dose: 200.0 mg/kg/injection, schedule: Q04DX003 (ip), vehicle: saline with Tween-80) was 2 of 6 and the survivor count (dose: 400.0 mg/kg/injection, schedule: Q04DX003 (ip), vehicle: saline with Tween-80) was 0 of 6.
With COc1ccc(-n2c(SCC(=O)NC(=O)Nc3ccccc3)nc3c(Br)cc(Br)cc3c2=O)cc1 the survivor count (dose: 60.0 mg/kg/injection, schedule: Q01DX005 (ip), vehicle: Klucel (hydroxypropylcellulose) (HPC)) was 6 of 6 and the survivor count (dose: 120.0 mg/kg/injection, schedule: Q01DX005 (ip), vehicle: Klucel (hydroxypropylcellulose) (HPC)) was 6 of 6.
COc1cc2c(cc1OC)[C@]13C[C@@H](OC)C=CC14OC4CN3CCC2 (stereo partly specified) was tested, and the survivor count (dose: 300.0 mg/kg/injection, schedule: Q01DX009 (ip), vehicle: saline with Tween-80) was 0 of 4.
With [Cu+2].[O-]c1ccccc1C=NCC(O)CN=Cc1ccccc1[O-] (stereo unspecified) the survivor count [1] was 4 of 6, the survivor count [2] was 0 of 6 and the survivor count [3] was 0 of 6. The survivor count [4] was 0 of 6.
With C[As](C)SCC1OC(n2ccc(=O)[nH]c2=O)C2OC(C)(C)OC12 (stereo unspecified) the survivor count (dose: 200.0 mg/kg/injection, schedule: Q01DX009 (ip), vehicle: distilled water + Tween-80) was 4 of 6.
CC(=O)Nc1ccc(/C=C/c2ccc(N=C=S)cc2S(=O)(=O)O)c(S(=O)(=O)O)c1 was tested, and the survivor count (dose: 200.0 mg/kg/injection, schedule: Q01DX009 (ip), vehicle: saline with Tween-80) was 6 of 6.
For COC(=O)C1c2cc3c(c(O)c2C(OC)CC1(C)O)C(=O)c1c(O)cc2c(c1C3=O)OC1OC2(C)C(O)C(N(C)C)C1O (stereo unspecified), the T/C (dose: 1.6 mg/kg/injection, schedule: Q01DX009 (ip), vehicle: other) was 148 % of control and the T/C (dose: 2.5 mg/kg/injection, schedule: Q01DX009 (ip), vehicle: other) was 142 % of control.
In the case of COc1cc(C(CC(C)=O)c2cc3c(cc2OC(C)=O)OCO3)cc(OC)c1OC (stereo unspecified) (tested in a mixture with another compound), the T/C [3] is reported as 126 % of control.
For COC(C(=O)O)(c1ccccc1)C(F)(F)F (stereo unspecified), the survivor count (dose: 240.0 mg/kg/injection, schedule: Q01DX005 (ip), vehicle: saline) was 3 of 6.
For C1=CN2C(c3ccccc3)=NN(c3ccccc3)[C@@H]2c2ccccc21, the survivor count [1] was 6 of 6, the survivor count (dose: 30.0 mg/kg/injection, schedule: Q01DX005 (ip), vehicle: saline with Tween-80) was 4 of 6 and the survivor count [2] was 1 of 6. The survivor count [3] was 0 of 6 and the survivor count [4] was 0 of 6.
For Nc1ccc(S(N)(=O)=O)cc1, the T/C (dose: 25.0 mg/kg/injection, schedule: Q01DX009 (ip), vehicle: saline with Tween-80) was 102, 105, 107, 109 % of control, the T/C (dose: 50.0 mg/kg/injection, schedule: Q01DX009 (ip), vehicle: saline with Tween-80) was 94, 101, 102 [5 of 6 alive], 105 % of control and the T/C (dose: 100.0 mg/kg/injection, schedule: Q01DX009 (ip), vehicle: saline with Tween-80) was 96, 98, 102, 115 % of control.
